# According to paper doi:10.1101/2022.07.24.501280:
# Protein sequences, listed by entry. Tags and fused reporters are not part of them. Lines headed by an entry give the natural chain unless they say otherwise; changes in a name come on top.
# UniProt P05198, whole entry: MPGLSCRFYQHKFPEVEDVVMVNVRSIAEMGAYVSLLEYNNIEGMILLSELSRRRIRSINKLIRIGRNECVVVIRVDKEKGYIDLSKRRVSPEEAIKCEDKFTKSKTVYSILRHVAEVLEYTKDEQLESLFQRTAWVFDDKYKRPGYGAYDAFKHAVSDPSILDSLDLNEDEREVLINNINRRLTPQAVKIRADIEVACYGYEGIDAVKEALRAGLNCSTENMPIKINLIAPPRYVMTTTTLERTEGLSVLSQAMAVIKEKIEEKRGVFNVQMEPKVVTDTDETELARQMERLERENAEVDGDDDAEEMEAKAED
# Positions count from the first letter of the chain named. Results are given in words; binding and its absence hold for the method and conditions named. Binding seen in cells or lysates may run through a third protein. Some entries that bind do so weakly or less than the wild type. For part of these data: Tags and fused reporters may be left off the sequences shown.
# T1: HA tagged PERK K618A kinase-dead mutant (UniProt Q9Z2B5)
# T1 sequence: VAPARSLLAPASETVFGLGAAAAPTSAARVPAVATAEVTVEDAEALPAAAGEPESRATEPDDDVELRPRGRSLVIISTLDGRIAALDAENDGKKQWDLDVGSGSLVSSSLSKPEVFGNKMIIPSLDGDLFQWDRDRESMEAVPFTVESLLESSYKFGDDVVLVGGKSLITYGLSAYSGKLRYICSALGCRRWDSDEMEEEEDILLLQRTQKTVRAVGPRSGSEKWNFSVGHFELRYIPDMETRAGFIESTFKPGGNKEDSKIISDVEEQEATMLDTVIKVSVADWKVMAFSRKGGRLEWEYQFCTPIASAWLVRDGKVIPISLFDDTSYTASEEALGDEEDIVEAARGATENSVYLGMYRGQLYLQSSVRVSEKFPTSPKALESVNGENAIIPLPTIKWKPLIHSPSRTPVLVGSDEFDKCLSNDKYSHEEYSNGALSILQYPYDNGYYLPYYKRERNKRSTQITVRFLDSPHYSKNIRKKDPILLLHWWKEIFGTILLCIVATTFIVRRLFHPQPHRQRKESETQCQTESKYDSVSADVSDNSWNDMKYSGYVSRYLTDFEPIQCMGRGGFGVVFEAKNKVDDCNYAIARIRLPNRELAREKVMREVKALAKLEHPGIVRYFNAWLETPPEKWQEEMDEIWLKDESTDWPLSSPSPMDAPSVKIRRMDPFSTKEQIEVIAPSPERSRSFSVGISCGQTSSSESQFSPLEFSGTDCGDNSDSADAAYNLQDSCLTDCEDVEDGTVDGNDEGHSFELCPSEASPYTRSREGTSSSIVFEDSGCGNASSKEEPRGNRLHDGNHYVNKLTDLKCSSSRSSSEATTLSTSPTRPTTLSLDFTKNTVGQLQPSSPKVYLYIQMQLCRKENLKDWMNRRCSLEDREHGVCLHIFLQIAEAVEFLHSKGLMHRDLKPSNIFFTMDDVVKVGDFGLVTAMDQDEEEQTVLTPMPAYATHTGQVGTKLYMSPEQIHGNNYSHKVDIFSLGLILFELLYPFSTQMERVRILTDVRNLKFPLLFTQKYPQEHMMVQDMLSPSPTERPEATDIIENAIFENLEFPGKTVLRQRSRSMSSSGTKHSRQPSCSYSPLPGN
# T2: HA tagged wild type PERK (PKR-like Endoplasmic Reticulum Kinase) (UniProt Q9Z2B5)
# T2 sequence: T1 sequence with A590K
# T3: PERK (in the immunoprecipitation of Figure 2d) (UniProt Q9Z2B5)
# T3 sequence: T1 sequence with A590K
# B1: ATAD3A Δ1-240 (domain or fragment, UniProt Q9NVI7 241-586)
# chain: VTDWDKVTATVAGLTLLAVGVYSAKNATLVAGRFIEARLGKPSLVRETSRITVLEALRHPIQVSRRLLSRPQDALEGVVLSPSLEARVRDIAIATRNTKKNRSLYRNILMYGPPGTGKTLFAKKLALHSGMDYAIMTGGDVAPMGREGVTAMHKLFDWANTSRRGLLLFVDEADAFLRKRATEKISEDLRATLNAFLYRTGQHSNKFMLVLASNQPEQFDWAINDRINEMVHFDLPGQEERERLVRMYFDKYVLKPATEGKQRLKLAQFDYGRKCSEVARLTEGMSGREIAQLAVSWQATAYASEDGVLTEAMMDTRVQDAVQQHQQKMCWLKAEGPGRGDEPSPS
# What was measured:
# Assay in all cases: co-IP
# [1] = target: T1, HA tagged PERK K618A kinase-dead mutant
# [2] = target: T2, HA tagged wild type PERK (PKR-like Endoplasmic Reticulum Kinase)
# [3] = target: T3, PERK (in the immunoprecipitation of Figure 2d)
Molecule,binding [1],binding [2],binding [3]
eIF2α (in HEK 293 cells) (from UniProt P05198 1-315),no binding,binds,
B1,,,no binding
